Values from PubChem BioAssay AID1159578 (Peter MacCallum Cancer Centre, 2015).
Shown is one part, drawn at random, of about 18,000 reagents tested. Of all reagents, about 1,030 (5.7%) were called active. 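Inactive calls also include pools with fewer than 3300 nuclei, whose migration was not assessed.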 Raw values are not corrected between plates. Further read-outs or replicates are left out here.

Screen: 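siRNA pools altering how lymphatic endothelial cells close a scratch wound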 (primary screen)
Cell system: human lymphatic endothelial cells
Reagent: siRNA pool against human genes, 40 nM
Timing: 48 h after transfection
Measured: 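Cells stained with dye and imaged after a scratch; covered wound area and nuclei counted, duplicates averaged, migration set against mock wells and turned into a robust z-score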
Scale: migration robust z-score: higher = faster migration into the scratch; nuclei per well: higher = more cells in the well
Active means: 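Pools averaging fewer than 3300 nuclei are never called; remaining pools count as changed when migration robust z lies outside -2 to 2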
Meaning of the calls: active = migration changed; inactive = no migration change, or too few cells

{"gene knocked down": "PROX1", "migration robust z-score": 0.42, "nuclei per well, duplicate mean": 5370, "activity call": "inactive"}
{"gene knocked down": "ATG16L1", "migration robust z-score": 0.47, "nuclei per well, duplicate mean": 5916, "activity call": "inactive"}
{"gene knocked down": "SMIM7", "migration robust z-score": -0.19, "nuclei per well, duplicate mean": 6998, "activity call": "inactive"}
{"gene knocked down": "RNF182", "migration robust z-score": 0.55, "nuclei per well, duplicate mean": 6582, "activity call": "inactive"}

Next part; the last 2 above are carried over.
{"gene knocked down": "SMIM7", "migration robust z-score": -0.19, "nuclei per well, duplicate mean": 6998, "activity call": "inactive"}
{"gene knocked down": "RNF182", "migration robust z-score": 0.55, "nuclei per well, duplicate mean": 6582, "activity call": "inactive"}
{"gene knocked down": "GPR137B", "migration robust z-score": -0.26, "nuclei per well, duplicate mean": 4982, "activity call": "inactive"}
{"gene knocked down": "IL1RAP", "migration robust z-score": 1.27, "nuclei per well, duplicate mean": 5382, "activity call": "inactive"}
{"gene knocked down": "TMPRSS11A", "migration robust z-score": 0.36, "nuclei per well, duplicate mean": 5544, "activity call": "inactive"}
{"gene knocked down": "MTMR8", "migration robust z-score": -1.55, "nuclei per well, duplicate mean": 4858, "activity call": "inactive"}
{"gene knocked down": "TSPAN8", "migration robust z-score": -0.31, "nuclei per well, duplicate mean": 5262, "activity call": "inactive"}
{"gene knocked down": "DOC2B", "migration robust z-score": 0.88, "nuclei per well, duplicate mean": 5730, "activity call": "inactive"}
{"gene knocked down": "DNAJA3", "migration robust z-score": -1.21, "nuclei per well, duplicate mean": 5291, "activity call": "inactive"}
{"gene knocked down": "DUOX1", "migration robust z-score": -0.68, "nuclei per well, duplicate mean": 3441, "activity call": "inactive"}
